Measured values reported in patent US4743585A (Warner-Lambert Company, priority 1986, dated 1988).
At least one compound was matched to its structure with a doubt left.

Molecular target: T1, renin (Homo sapiens, UniProt P00797)
T1 sequence (P00797 67-406): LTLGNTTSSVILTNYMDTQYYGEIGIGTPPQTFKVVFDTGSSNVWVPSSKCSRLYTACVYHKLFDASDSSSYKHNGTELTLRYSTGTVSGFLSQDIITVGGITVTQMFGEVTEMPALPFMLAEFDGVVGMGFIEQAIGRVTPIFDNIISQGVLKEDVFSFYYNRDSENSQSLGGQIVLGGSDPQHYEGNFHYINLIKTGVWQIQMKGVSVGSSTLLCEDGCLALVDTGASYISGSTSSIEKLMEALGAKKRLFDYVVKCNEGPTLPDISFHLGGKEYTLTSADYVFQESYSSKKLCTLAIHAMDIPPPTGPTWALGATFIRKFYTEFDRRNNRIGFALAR
Test: in vitro renin inhibitory activity, standard radioimmunoassay for angiotensin I
Type: biochemical
Details: molar concentration causing 50% inhibition of renin activity; renin incubated two hours at 37° with substrate angiotensinogen; product angiotensin I by radioimmunoassay
Description: The effectiveness of the aforementioned compounds is determined by a test for in vitro renin inhibitory activity. This activity is determined by a standard radioimmunoassay for angiotensin I. In this assay the enzyme, renin, incubated for two hours at 37° in the presence of a substrate, angiotensinogen, generates the product, angiotensin I. Test compounds are added to the incubation mixture.

| Compound | IC50 |
| --- | --- |
| CC[C@H](C)C(CN[C@H](C(=O)N[C@@H](CC(C)C)[C@@H](O)CC(=O)N[C@@H](CC(C)C)C(=O)NCc1ccccc1)C(C)C)NC(=O)CC(C)C (single isomer, unassigned) [Example 71, 3,8,11,14-tetraazaoctadecanamide, 6-hydroxy-17-methyl-10-(1-methylethyl)-13-(1-methylpropyl)-2-7-bis(2-methylpropyl)-4,9,15-trioxo-N-(phenylmethyl)] | 30 µM |
| CC[C@H](C)C(CN[C@H](C(=O)N[C@@H](CC(C)C)[C@@H](O)CC(=O)N[C@@H](CC(C)C)C(=O)NCc1ccccc1)C(C)C)NC(=O)CC(C)C (single isomer, unassigned) [Example 72, IVA-ILE[CH2 NH]VAL-STA-LEU-NHCH2 Ph] | 18 µM |
